{"source": "the supplement of paper PMC10849652", "note": "The list shows a part of the results."}
{"compound": "CS(=O)(=O)c1ccc(-c2cnc(N)c(C(=O)Nc3ccccc3)n2)cc1", "test": "log2 fold change, soluble protein after heating vs DMSO (PISA); higher = thermal stabilisation; K562 cells, 10 uM, 30 min; active = over 0.2 and 3.5 SD of the protein, either way, in both replicates (recomputed)", "method_in_brief": "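K562 cells at 2×10^6 cells/mL were treated for 30 min with 10 μM compound, and aliquots were heated for 3 min over 48°C-58°C before pooling. Extraction used PBS with 0.5% NP-40 at 4°C, and soluble protein was the supernatant after 21,000xg for 90 min, measured by TMTpro 16plex LC-MS/MS with channel sums equalised. Thermal stability values, relative to control samples and from duplicates, are log2 fold changes.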"}
{"target": "CUEDC2 (UniProt Q9H467)", "log2 fold change": "inactive: 0.028"}
{"target": "DCTN3 (UniProt O75935)", "log2 fold change": "inactive: -0.003"}
{"target": "CWC25 (UniProt Q9NXE8)", "log2 fold change": "inactive: -0.049"}
{"target": "D2HGDH (UniProt Q8N465)", "log2 fold change": "inactive: 0.055"}
{"target": "CTSC (UniProt P53634)", "log2 fold change": "inactive: 0.042"}
{"target": "CTCF (UniProt P49711)", "log2 fold change": "inactive: -0.065"}
{"target": "CYP20A1 (UniProt Q6UW02)", "log2 fold change": "inactive: -0.038"}
{"target": "CTH (UniProt P32929)", "log2 fold change": "inactive: -0.012"}
{"target": "CTNNA2 (UniProt P26232)", "log2 fold change": "inactive: -0.016"}
{"target": "CTBP2 isoform 2 (UniProt P56545)", "log2 fold change": "inactive: -0.038"}
{"target": "CSRP1 (UniProt P21291)", "log2 fold change": "inactive: -0.004"}
{"target": "CSTF1 (UniProt Q05048)", "log2 fold change": "inactive: 0.004"}
{"target": "DARS (UniProt P14868)", "log2 fold change": "inactive: -0.009"}
{"target": "CXorf56 (UniProt Q9H5V9)", "log2 fold change": "inactive: 0"}
{"target": "CYFIP2 (UniProt Q96F07)", "log2 fold change": "inactive: 0.013"}
{"target": "DCAF15 (UniProt Q66K64)", "log2 fold change": "inactive: 0.081"}
{"target": "CTNND1 (UniProt O60716)", "log2 fold change": "inactive: -0.005"}
{"target": "DCAF1 (UniProt Q9Y4B6)", "log2 fold change": "inactive: 0.009"}
{"target": "DCUN1D4 isoform 3 (UniProt Q92564)", "log2 fold change": "inactive: 0.097"}
{"target": "CYBC1 (UniProt Q9BQA9)", "log2 fold change": "inactive: 0.032"}
{"target": "CTNNA1 isoform 2 (UniProt P35221)", "log2 fold change": "inactive: -0.027"}
{"target": "DBT (UniProt P11182)", "log2 fold change": "inactive: -0.024"}
{"target": "CUL5 (UniProt Q93034)", "log2 fold change": "inactive: 0.022"}
{"target": "DCTD isoform 2 (UniProt P32321)", "log2 fold change": "inactive: 0.01"}
{"target": "CTPS1 (UniProt P17812)", "log2 fold change": "inactive: -0.01"}
{"target": "CYB5R2 (UniProt Q6BCY4)", "log2 fold change": "inactive: 0.025"}
{"target": "CYB5B, A0A499FJ32", "log2 fold change": "inactive: -0.02"}
{"target": "CST3 (UniProt P01034)", "log2 fold change": "inactive: -0.147"}
{"target": "DCK (UniProt P27707)", "log2 fold change": "inactive: 0.039"}
{"target": "CTDP1 (UniProt Q9Y5B0)", "log2 fold change": "inactive: 0.056"}
{"target": "CTU1 (UniProt Q7Z7A3)", "log2 fold change": "inactive: 0.005"}
{"target": "DAD1 (UniProt P61803)", "log2 fold change": "inactive: 0.015"}
{"target": "CTBP1 (UniProt Q13363)", "log2 fold change": "inactive: 0.005"}
{"target": "DCPS (UniProt Q96C86)", "log2 fold change": "inactive: 0.019"}
{"target": "CSTB (UniProt P04080)", "log2 fold change": "inactive: 0.011"}
{"target": "DBN1 isoform 3 (UniProt Q16643)", "log2 fold change": "inactive: -0.063"}
{"target": "DCAKD (UniProt Q8WVC6)", "log2 fold change": "inactive: 0.055"}
{"target": "DBR1 (UniProt Q9UK59)", "log2 fold change": "inactive: -0.034"}
{"target": "CT45A10 (UniProt P0DMU9)", "log2 fold change": "inactive: -0.06"}
{"target": "DAP3 (UniProt P51398)", "log2 fold change": "inactive: -0.015"}
